Measurements published in patent US6750202B1 (priority 1998, dated 2004).

Test: general procedure: solution-phase peptide synthesis; PyBop, ethyldiisopropylamine
Settings: coupling step

**Q.** For “(1R)-1-({(2S)-2-{[(Benzyloxy)carbonyl]amino}-6-[(tert-butoxy-carbonyl)amino]hexanoyl}amino)-2-phenylethyl{3-[(2S)-2-({[(1S)-1-(methoxycarbonyl)-3-methylbutyl]amino}carbonyl)tetrahydro-1H-pyrrol-1-yl]-2-methyl-3-oxopropyl}phosphinic acid”, which step yield is on record?
**A.** 32.8% of theory
